Test [1] deals with CPAP (Centrosomal-P4.1-associated protein, Centromere protein J (CENPJ)), endogenous (human (endogenous in HeLa and in hiPSC-derived brain organoids)) (UniProt Q9HC77). As to the kind of experiment: co-IP; endogenous proteins; Protein G beads coated with mouse monoclonal anti-CPAP antibody, mixed with high-speed HeLa cell extracts, 4 °C for 4 h; washes incl. high-salt buffer with 500 mM salt; Western blot. Background: A western blot detects proteins with antibodies after separation by electrophoresis.

Amino acid sequences for entries named in this document (tags omitted).
UniProt Q9HC77: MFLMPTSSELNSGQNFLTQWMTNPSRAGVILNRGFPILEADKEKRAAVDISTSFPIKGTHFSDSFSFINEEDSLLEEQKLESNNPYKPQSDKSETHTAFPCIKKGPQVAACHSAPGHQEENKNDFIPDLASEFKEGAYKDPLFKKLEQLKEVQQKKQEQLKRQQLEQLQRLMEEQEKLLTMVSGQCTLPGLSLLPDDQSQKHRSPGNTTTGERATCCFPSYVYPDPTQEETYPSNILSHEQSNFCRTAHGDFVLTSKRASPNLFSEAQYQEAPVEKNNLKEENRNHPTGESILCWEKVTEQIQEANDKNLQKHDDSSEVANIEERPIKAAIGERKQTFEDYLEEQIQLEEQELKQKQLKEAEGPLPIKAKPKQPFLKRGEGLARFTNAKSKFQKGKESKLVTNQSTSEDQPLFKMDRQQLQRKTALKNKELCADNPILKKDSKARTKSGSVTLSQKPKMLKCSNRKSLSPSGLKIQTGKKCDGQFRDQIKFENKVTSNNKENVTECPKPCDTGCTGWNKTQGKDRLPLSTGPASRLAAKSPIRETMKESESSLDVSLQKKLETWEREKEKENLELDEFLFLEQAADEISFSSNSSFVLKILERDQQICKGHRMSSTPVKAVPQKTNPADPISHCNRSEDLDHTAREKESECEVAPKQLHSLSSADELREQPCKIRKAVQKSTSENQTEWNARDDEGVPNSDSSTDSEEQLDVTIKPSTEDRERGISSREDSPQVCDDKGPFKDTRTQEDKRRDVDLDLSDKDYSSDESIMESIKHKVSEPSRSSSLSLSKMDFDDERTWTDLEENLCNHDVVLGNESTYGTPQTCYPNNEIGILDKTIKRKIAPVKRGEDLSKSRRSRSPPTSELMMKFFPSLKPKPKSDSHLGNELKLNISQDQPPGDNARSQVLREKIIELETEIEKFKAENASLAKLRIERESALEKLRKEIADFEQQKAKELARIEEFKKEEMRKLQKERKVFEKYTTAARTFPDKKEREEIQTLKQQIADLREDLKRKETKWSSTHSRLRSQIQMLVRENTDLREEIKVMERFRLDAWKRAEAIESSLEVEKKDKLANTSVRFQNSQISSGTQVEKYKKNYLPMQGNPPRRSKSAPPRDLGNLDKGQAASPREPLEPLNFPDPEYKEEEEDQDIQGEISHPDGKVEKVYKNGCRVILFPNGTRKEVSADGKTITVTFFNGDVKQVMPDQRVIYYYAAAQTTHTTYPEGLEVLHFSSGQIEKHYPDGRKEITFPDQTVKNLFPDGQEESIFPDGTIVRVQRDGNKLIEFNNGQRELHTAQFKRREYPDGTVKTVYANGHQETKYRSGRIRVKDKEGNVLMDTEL

Test [2] shares this target. As to the kind of experiment: co-IP; endogenous proteins; lysate of 15 day old hiPSC-derived brain organoids (2500 µg total protein), overnight at 4 °C with protein G Dynabeads coupled to CPAP or DYX1C1 antibody; washes with 150 mM NaCl; Western blot.
The target in another test is CPAP-GFP (UniProt Q9HC77). The test is described as follows: co-IP; GFP-Trap pull-down of CPAP-GFP from lysates of doxycycline-induced hTERT-RPE1-DOX-CPAP-GFP cells (normal serum) transiently transfected with V5 constructs; 10 mM Tris/Cl pH 7.5, 150 mM NaCl, 0.5 mM EDTA, 0.5% NP-40; anti-V5 blot.

These are yes or no findings as the source states them, for the method shown. In cells and extracts the contact can be indirect. Some results given as binding are weak or reduced against the parent protein; the word gives no strength. For some assays here: Tags and fused reporters may be left off the sequences shown.

B1: DYX1C1 (DNAAF4), endogenous (protein, UniProt Q8WXU2 1-420)
chain: MPLQVSDYSWQQTKTAVFLSLPLKGVCVRDTDVFCTENYLKVNFPPFLFEAFLYAPIDDESSKAKIGNDTIVFTLYKKEAAMWETLSVTGVDKEMMQRIREKSILQAQERAKEATEAKAAAKREDQKYALSVMMKIEEEERKKIEDMKENERIKATKALEAWKEYQRKAEEQKKIQREEKLCQKEKQIKEERKKIKYKSLTRNLASRNLAPKGRNSENIFTEKLKEDSIPAPRSVGSIKINFTPRVFPTALRESQVAEEEEWLHKQAEARRAMNTDIAELCDLKEEEKNPEWLKDKGNKLFATENYLAAINAYNLAIRLNNKMPLLYLNRAACHLKLKNLHKAIEDSSKALELLMPPVTDNANARMKAHVRRGTAFCQLELYVEGLQDYEAALKIDPSNKIVQIDAEKIRNVIQGTELKS
For the molecule B1, the binding entry in test [1] and in test [2] was “binds” in each case.

B2: DYX1C1-V5 (protein, UniProt Q8WXU2 1-420)
chain: B1 chain
Consider B2, for which the binding result with CPAP-GFP was “binds”.

B3: DCDC2, endogenous (protein, UniProt Q9UHG0 1-476)
chain: MSGSSARSSHLSQPVVKSVLVYRNGDPFYAGRRVVIHEKKVSSFEVFLKEVTGGVQAPFGAVRNIYTPRTGHRIRKLDQIQSGGNYVAGGQEAFKKLNYLDIGEIKKRPMEVVNTEVKPVIHSRINVSARFRKPLQEPCTIFLIANGDLINPASRLLIPRKTLNQWDHVLQMVTEKITLRSGAVHRLYTLEGKLVESGAELENGQFYVAVGRDKFKKLPYSELLFDKSTMRRPFGQKASSLPPIVGSRKSKGSGNDRHSKSTVGSSDNSSPQPLKRKGKKEDVNSEKLTKLKQNVKLKNSQETIPNSDEGIFKAGAERSETRGAAEVQEDEDTQVEVPVDQRPAEIVDEEEDGEKANKDAEQKEDFSGMNGDLEEEGGREATDAPEQVEEILDHSEQQARPARVNGGTDEENGEELQQVNNELQLVLDKERKSQGAGSGQDEADVDPQRPPRPEVKITSPEENENNQQNKDYAAVA
B3: in test [1], the binding entry is “binds”.

B4: DCDC2-V5 (protein, UniProt Q9UHG0 1-476)
chain: B3 chain
Consider B4, for which the binding result with CPAP-GFP is recorded as “binds”.

The record behind these values is article PMC10224228.
